In the supplement of paper PMC10849652:
Some of the results follow.

Sequences of proteins named here, by UniProt entry; tags and fusion partners are left off. A change or cut given only in a name is not applied to a line headed by its entry.
UniProt Q9BW30: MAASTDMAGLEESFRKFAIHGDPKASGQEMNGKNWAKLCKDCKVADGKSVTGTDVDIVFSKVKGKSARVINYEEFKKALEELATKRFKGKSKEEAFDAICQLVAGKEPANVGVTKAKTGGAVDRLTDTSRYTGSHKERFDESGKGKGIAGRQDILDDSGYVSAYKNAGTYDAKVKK
UniProt Q5JTV8: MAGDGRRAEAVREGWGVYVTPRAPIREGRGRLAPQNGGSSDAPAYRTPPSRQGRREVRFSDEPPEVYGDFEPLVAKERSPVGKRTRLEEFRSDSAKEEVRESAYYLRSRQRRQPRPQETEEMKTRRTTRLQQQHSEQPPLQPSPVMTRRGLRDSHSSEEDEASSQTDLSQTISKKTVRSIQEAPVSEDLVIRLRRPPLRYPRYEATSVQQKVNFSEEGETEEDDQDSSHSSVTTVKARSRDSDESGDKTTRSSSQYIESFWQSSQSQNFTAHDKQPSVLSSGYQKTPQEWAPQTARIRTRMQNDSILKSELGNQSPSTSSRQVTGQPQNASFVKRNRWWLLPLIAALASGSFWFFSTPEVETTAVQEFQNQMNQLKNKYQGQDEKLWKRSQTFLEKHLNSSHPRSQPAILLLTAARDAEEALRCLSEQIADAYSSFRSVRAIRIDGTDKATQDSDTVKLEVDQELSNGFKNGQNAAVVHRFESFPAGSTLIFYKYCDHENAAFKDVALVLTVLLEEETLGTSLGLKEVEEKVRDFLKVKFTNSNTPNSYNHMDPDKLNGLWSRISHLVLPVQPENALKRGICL
UniProt O95900: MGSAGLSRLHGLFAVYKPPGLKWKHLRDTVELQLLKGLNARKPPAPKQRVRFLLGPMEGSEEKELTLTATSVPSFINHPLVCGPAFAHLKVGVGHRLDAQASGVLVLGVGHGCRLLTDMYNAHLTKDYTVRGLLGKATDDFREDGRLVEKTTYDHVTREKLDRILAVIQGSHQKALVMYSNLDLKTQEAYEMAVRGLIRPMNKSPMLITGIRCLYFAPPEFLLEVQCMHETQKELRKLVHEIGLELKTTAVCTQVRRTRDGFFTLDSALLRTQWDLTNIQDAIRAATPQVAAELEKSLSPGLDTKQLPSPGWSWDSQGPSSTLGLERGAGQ
UniProt P02585, whole entry, looked up: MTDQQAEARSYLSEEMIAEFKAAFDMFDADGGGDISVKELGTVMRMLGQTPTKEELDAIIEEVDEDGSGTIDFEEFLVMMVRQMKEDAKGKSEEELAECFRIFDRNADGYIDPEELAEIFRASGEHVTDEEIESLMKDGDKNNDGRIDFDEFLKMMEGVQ
UniProt Q9C037: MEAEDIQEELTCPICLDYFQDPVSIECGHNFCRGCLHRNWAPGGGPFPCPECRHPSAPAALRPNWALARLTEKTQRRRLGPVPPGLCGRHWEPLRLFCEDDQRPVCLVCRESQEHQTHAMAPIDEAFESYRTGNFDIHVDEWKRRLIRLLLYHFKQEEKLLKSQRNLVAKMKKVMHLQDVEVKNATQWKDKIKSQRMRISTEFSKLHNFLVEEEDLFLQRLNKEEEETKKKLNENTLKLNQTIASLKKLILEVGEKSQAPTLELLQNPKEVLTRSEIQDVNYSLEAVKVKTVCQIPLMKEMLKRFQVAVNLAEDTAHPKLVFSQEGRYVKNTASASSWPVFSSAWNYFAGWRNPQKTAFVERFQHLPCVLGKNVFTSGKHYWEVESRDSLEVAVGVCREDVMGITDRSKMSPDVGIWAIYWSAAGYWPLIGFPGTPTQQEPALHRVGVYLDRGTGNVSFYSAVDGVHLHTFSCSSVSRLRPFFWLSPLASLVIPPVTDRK
UniProt A5PLN9: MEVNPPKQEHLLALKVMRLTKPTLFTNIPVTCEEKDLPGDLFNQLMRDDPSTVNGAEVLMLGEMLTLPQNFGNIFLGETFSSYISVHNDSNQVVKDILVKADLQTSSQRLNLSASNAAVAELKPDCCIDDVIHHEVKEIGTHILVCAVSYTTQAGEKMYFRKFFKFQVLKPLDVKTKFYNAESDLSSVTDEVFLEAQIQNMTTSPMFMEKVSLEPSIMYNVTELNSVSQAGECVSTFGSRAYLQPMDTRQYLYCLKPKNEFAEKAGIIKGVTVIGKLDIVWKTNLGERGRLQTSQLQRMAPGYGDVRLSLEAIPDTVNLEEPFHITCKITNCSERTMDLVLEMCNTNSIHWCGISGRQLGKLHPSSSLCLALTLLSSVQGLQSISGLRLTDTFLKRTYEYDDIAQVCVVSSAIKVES
UniProt Q7L0Y3: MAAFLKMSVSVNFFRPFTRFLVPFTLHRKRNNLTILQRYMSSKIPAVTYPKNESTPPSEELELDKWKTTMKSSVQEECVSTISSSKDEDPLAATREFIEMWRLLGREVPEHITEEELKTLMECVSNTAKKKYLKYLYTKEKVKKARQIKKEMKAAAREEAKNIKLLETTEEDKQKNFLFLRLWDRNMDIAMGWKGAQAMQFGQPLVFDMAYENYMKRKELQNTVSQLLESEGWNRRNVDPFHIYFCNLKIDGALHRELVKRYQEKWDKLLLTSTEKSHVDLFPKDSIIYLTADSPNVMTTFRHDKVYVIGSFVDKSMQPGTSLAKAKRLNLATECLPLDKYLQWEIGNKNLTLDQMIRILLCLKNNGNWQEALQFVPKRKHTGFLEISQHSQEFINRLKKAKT
UniProt Q9C035: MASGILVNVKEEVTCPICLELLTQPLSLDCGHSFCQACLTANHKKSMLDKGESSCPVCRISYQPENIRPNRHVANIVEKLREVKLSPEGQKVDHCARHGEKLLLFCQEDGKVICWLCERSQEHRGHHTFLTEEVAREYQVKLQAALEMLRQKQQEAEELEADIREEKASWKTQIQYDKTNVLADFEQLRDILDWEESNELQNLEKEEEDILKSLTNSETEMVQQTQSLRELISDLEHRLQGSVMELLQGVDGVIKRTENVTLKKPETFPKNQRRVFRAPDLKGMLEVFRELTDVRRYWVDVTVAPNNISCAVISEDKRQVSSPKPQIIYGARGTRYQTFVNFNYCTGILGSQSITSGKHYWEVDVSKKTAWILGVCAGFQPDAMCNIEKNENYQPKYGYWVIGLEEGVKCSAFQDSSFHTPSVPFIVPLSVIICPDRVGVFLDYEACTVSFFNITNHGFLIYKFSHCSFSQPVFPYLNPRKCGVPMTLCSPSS
UniProt Q6ZVM7: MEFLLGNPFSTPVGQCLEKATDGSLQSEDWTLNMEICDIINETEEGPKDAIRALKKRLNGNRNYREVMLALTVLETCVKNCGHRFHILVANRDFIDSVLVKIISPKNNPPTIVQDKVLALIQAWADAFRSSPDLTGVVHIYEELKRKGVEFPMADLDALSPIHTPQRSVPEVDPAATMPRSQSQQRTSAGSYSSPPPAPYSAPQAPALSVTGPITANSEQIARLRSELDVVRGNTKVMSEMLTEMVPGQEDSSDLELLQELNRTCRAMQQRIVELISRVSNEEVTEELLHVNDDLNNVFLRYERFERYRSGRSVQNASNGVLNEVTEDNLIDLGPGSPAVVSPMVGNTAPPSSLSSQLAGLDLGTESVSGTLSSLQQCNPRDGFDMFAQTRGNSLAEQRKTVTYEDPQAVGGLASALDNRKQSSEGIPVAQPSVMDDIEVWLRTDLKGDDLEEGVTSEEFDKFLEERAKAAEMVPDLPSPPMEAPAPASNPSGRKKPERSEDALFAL
UniProt Q86W33: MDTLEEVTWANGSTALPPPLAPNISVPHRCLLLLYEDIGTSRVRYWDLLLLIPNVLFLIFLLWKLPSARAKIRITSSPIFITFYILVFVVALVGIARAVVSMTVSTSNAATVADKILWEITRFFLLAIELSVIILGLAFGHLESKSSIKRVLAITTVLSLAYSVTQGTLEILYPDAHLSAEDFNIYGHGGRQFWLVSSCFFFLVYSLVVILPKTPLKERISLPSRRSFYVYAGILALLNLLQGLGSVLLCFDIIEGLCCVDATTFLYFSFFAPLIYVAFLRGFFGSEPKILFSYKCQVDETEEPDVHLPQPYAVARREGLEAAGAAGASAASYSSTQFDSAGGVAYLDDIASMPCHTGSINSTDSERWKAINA
UniProt Q9H3H1: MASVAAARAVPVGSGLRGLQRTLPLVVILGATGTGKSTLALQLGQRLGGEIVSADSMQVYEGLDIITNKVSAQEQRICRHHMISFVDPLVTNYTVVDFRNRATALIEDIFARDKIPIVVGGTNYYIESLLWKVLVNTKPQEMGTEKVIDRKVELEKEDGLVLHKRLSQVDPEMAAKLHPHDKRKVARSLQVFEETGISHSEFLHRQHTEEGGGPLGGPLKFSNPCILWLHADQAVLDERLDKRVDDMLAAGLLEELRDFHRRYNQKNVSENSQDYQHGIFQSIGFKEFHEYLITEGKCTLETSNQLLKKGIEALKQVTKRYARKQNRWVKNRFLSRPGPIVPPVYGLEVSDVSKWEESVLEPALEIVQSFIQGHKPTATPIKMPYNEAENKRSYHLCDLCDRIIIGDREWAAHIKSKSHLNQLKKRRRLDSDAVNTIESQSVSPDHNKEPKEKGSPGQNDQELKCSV
UniProt Q96QT4: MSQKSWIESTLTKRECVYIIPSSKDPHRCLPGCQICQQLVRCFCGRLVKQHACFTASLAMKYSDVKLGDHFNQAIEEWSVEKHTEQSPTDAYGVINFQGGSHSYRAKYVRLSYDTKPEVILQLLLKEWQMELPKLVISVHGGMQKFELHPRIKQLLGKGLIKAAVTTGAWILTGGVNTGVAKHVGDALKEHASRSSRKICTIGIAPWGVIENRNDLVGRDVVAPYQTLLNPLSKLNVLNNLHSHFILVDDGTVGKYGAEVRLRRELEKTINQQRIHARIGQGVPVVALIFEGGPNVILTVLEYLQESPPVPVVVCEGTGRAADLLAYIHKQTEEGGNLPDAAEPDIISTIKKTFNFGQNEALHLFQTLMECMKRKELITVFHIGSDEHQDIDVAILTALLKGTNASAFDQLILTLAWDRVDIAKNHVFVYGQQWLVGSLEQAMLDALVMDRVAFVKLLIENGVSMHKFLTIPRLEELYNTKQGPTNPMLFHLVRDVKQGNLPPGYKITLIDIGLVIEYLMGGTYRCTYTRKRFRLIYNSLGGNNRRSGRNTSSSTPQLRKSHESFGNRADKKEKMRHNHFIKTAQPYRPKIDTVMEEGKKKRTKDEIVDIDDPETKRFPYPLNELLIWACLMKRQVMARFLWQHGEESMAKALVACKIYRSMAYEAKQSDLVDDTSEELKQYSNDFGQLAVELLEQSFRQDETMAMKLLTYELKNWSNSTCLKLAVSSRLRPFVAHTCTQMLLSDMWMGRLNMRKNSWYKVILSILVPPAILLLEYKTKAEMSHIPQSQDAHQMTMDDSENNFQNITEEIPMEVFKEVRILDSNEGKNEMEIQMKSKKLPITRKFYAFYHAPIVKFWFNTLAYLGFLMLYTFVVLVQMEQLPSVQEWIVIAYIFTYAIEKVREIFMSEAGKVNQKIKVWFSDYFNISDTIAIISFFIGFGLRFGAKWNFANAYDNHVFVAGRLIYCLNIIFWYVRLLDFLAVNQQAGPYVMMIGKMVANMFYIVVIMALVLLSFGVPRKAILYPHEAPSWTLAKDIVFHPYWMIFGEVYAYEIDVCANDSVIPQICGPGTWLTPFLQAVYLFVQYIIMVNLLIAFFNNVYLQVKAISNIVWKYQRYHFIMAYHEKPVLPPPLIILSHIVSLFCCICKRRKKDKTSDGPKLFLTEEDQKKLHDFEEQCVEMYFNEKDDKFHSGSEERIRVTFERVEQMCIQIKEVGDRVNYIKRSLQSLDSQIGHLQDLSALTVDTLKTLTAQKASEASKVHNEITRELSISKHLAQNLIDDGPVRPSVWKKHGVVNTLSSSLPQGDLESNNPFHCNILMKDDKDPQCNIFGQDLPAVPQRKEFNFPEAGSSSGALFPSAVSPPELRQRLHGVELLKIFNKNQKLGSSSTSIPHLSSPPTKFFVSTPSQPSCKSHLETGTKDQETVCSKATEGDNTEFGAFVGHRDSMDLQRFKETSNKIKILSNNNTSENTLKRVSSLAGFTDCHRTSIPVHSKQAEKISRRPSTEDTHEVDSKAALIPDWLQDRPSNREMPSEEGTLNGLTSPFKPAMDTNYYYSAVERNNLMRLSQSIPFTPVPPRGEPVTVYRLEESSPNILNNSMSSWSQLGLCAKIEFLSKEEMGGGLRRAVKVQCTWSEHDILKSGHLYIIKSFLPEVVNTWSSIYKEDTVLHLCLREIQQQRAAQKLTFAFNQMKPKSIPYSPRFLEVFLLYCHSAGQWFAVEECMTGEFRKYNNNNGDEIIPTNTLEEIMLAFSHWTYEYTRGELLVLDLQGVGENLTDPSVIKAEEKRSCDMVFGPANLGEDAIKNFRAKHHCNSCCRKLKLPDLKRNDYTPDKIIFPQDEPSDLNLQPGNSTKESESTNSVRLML

Assays:
Assay in all cases: log2 fold change, soluble protein after heating vs DMSO (PISA); higher = thermal stabilisation; K562 cells, 10 uM, 30 min; active = over 0.2 and 3.5 SD of the protein, either way, in both replicates (recomputed)
[1] = compound: CC1=C(C=C(C=C1)NC(=O)C2=CC(=CC=C2)C(C)(C)C#N)NC3=CC4=C(C=C3)N=CN(C4=O)C
Procedure, shortened: (§1)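 K562 cells at 2×10^6 cells/mL were given 10 μM compound for 30 min. Aliquots then went through 3 min of heating across 48°C-58°C, were pooled, and were extracted in PBS with 0.5% NP-40 at 4°C, and the supernatant after 21,000xg for 90 min was quantified by TMTpro 16plex LC-MS/MS with channel sums equalised. Thermal stability relative to control samples, from duplicates, is given as log2 fold change.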

[2] = compound: CC1=C(C=C(C=C1)NC(=O)C2=CC(=CC=C2)N(C)C)NC(=O)C3=CC=C(C=C3)O
Procedure, shortened: as §1

[3] = compound: CC1=NC(=CC=C1)C2=C(N=C(N2)C(C)(C)C)C3=CC4=NC=CN=C4C=C3
Procedure, shortened: as §1

Nexturastat A = compound: CCCCN(Cc1ccc(C(=O)NO)cc1)C(=O)Nc1ccccc1 [Nexturastat A]
Procedure, shortened: as §1

epoxomicin = compound: CC[C@H](C)[C@@H](C(=O)N[C@@H]([C@@H](C)O)C(=O)N[C@@H](CC(C)C)C(=O)[C@]1(CO1)C)NC(=O)[C@H]([C@@H](C)CC)N(C)C(=O)C [epoxomicin]
Procedure, shortened: as §1

[4] = compound: CC1=CC=C(C=C1)SC2=C3C=C(SC3=CN=C2)C(=O)N
Procedure, shortened: as §1

[5] = compound: CCCS(=O)(=O)Nc1ccc(F)c(C(=O)c2c[nH]c3ncc(Cl)cc23)c1F
Procedure, shortened: as §1

[6] = compound: CCCc1cc(C)[nH]c(=O)c1CNC(=O)c1cc(-c2ccnc(N3CCN(C)CC3)c2)cc2c1cnn2C(C)C
Procedure, shortened: as §1

barasertib = compound: CCN(CCCOc1ccc2c(Nc3cc(CC(=O)Nc4cccc(F)c4)[nH]n3)ncnc2c1)CCOP(=O)(O)O [barasertib]
Procedure, shortened: as §1

[7] = compound: CC[C@@H]1C(=O)N(C)c2cnc(Nc3ccc(C(=O)NC4CCN(C)CC4)cc3OC)nc2N1C1CCCC1
Procedure, shortened: as §1

volasertib = compound: CC[C@@H]1C(=O)N(C)c2cnc(Nc3ccc(C(=O)N[C@H]4CC[C@H](N5CCN(CC6CC6)CC5)CC4)cc3OC)nc2N1C(C)C [volasertib]
Procedure, shortened: as §1

[8] = compound: CC[C@H](C)N1C=C(C2=C(C=C(C=C21)C3=CN=C(C=C3)N4CCNCC4)C(=O)NCC5=C(C=C(NC5=O)C)C)C
Procedure, shortened: as §1

[9] = compound: CCn1cc(-c2ccnc3[nH]c(-c4cccc(CN(C)C)c4)cc23)c(-c2ccc(NC(=O)N(C)C)cc2)n1
Procedure, shortened: as §1

rosiglitazone = compound: CN(CCOC1=CC=C(C=C1)C[C@H]2C(=O)NC(=O)S2)C3=CC=CC=N3 (racemic) [rosiglitazone]
Procedure, shortened: as §1

[10] = compound: CN1C2=C(C3=C1C(=O)N(N=C3)CC4=CC(=CC=C4)N)SC(=C2)S(=O)C
Procedure, shortened: as §1

[11] = compound: CN1CCC(CNc2ccc3ncc(-c4cccc(OC(F)(F)F)c4)n3n2)CC1
Procedure, shortened: as §1

givinostat = compound: CCN(CC)Cc1ccc2cc(COC(=O)Nc3ccc(C(=O)NO)cc3)ccc2c1 [givinostat]
Procedure, shortened: as §1

[12] = compound: CCn1c(C(=O)N(C2CC2)C2CC2)cc2c3c(ncn3C)c(Nc3cc(C)n(C)n3)nc21
Procedure, shortened: as §1

vemurafenib = compound: CCCS(=O)(=O)Nc1ccc(F)c(C(=O)c2c[nH]c3ncc(-c4ccc(Cl)cc4)cc23)c1F [vemurafenib]
Procedure, shortened: as §1

[13] = compound: CN(C)CC(=O)Nc1ccc2[nH]c(=O)c3ccccc3c2c1
Procedure, shortened: as §1

Target	log2 fold change [1]	log2 fold change [2]	log2 fold change [3]	log2 fold change (Nexturastat A)	log2 fold change (epoxomicin)	log2 fold change [4]	log2 fold change [5]	log2 fold change [6]	log2 fold change (barasertib)	log2 fold change [7]	log2 fold change (volasertib)	log2 fold change [8]	log2 fold change [9]	log2 fold change (rosiglitazone)	log2 fold change [10]	log2 fold change [11]	log2 fold change (givinostat)	log2 fold change [12]	log2 fold change (vemurafenib)	log2 fold change [13]
TPPP3 (UniProt Q9BW30)	inactive: -0.024	inactive: -0.067	inactive: 0.021	inactive: 0.062	inactive: 0.033	–	–	–	–	–	–	–	–	–	–	–	–	–	–	–
TOR1AIP1 (UniProt Q5JTV8)	inactive: 0.077	inactive: 0.031	inactive: -0.074	inactive: 0.056	inactive: -0.042	inactive: -0.001	inactive: 0.033	inactive: -0.057	inactive: 0.024	inactive: 0.117	inactive: -0.146	inactive: 0.078	inactive: -0.029	inactive: -0.01	inactive: -0.012	inactive: 0.063	–	–	–	–
TRUB2 (UniProt O95900)	inactive: -0.071	–	inactive: 0.052	inactive: 0.068	inactive: -0.276	inactive: 0.044	inactive: -0.359	–	–	–	inactive: -0.032	–	inactive: 0.244	–	inactive: 0.01	inactive: 0.069	inactive: 0.014	inactive: 0.086	–	–
TRMT10A (UniProt Q8TBZ6)	inactive: 0.006	inactive: -0.004	inactive: 0.031	inactive: -0.079	inactive: 0.003	inactive: 0.063	inactive: -0.017	inactive: -0.011	inactive: -0.019	inactive: 0.016	inactive: -0.013	inactive: 0.033	inactive: -0.037	–	inactive: -0.135	inactive: -0.075	inactive: -0.004	–	inactive: 0.014	inactive: 0.047
TP53BP2 isoform 3 (UniProt Q13625)	inactive: 0.018	inactive: 0.018	inactive: -0.031	inactive: 0.061	inactive: 0.04	inactive: 0.008	inactive: -0.002	–	inactive: -0.115	–	inactive: -0.126	inactive: 0.02	inactive: 0.119	inactive: -0.071	inactive: 0.038	inactive: -0.123	inactive: 0.113	inactive: -0.061	inactive: 0.003	inactive: -0.007
TNNC2 (UniProt P02585)	inactive: -0.064	inactive: 0.037	inactive: -0.024	inactive: -0.011	inactive: -0.037	inactive: 0.002	inactive: -0.016	inactive: -0.045	inactive: -0.004	inactive: 0.042	inactive: 0.07	inactive: -0.031	inactive: 0.04	–	inactive: -0.053	inactive: -0.015	inactive: -0.037	–	inactive: 0	inactive: -0.006
TRIM4 (UniProt Q9C037)	inactive: -0.031	inactive: 0.023	inactive: -0.076	inactive: 0.1	inactive: 0.111	inactive: -0.029	inactive: -0.041	inactive: 0.046	inactive: 0.011	inactive: 0.01	inactive: -0.042	inactive: 0.178	inactive: -0.069	–	–	inactive: 0.294	inactive: -0.086	–	inactive: -0.297	inactive: 0.03
TRAPPC13 isoform 5 (UniProt A5PLN9)	inactive: 0.022	inactive: 0.008	inactive: 0.043	inactive: 0.024	inactive: -0.014	inactive: 0.006	inactive: 0.113	inactive: 0.095	inactive: 0.002	inactive: -0.055	inactive: -0.34	inactive: 0.044	inactive: -0.068	–	inactive: 0.042	inactive: -0.187	inactive: 0.025	–	inactive: 0.074	inactive: 0.078
TRMT10C (UniProt Q7L0Y3)	inactive: 0.013	inactive: -0.051	inactive: 0.007	inactive: -0.095	inactive: 0.046	inactive: 0.017	inactive: 0.042	inactive: -0.013	inactive: 0.041	inactive: -0.161	active: -0.416	inactive: 0.07	inactive: -0.057	–	inactive: 0.008	inactive: 0.003	inactive: -0.022	–	inactive: 0.015	inactive: 0.018
TRIO (UniProt O75962)	inactive: -0.11	inactive: -0.095	inactive: 0.108	inactive: -0.044	inactive: -0.032	–	–	inactive: 0.028	inactive: 0.052	inactive: -0.018	–	inactive: -0.007	–	inactive: 0.08	–	–	inactive: 0.261	inactive: -0.068	–	–
TPRG1L (UniProt Q5T0D9)	inactive: 0.106	inactive: -0.062	–	inactive: -0.042	inactive: 0.085	inactive: 0.216	inactive: 0.238	inactive: -0.376	–	inactive: -0.251	inactive: -0.268	inactive: -0.073	–	–	–	–	inactive: 0.138	inactive: 0.107	–	–
TRIM5 (UniProt Q9C035)	inactive: -0.063	inactive: -0.197	–	inactive: 0.033	inactive: 0	–	–	–	–	–	–	–	–	–	inactive: 0.25	–	inactive: 0.119	–	inactive: -0.044	inactive: -0.005
TOM1L2 (UniProt Q6ZVM7)	inactive: -0.038	–	inactive: -0.132	inactive: -0.046	inactive: -0.035	–	–	–	–	–	–	inactive: -0.025	–	–	inactive: -0.071	–	inactive: 0.025	–	inactive: -0.008	inactive: 0.127
TPRA1 (UniProt Q86W33)	inactive: 0.158	–	–	inactive: -0.13	inactive: -0.031	–	–	inactive: -0.257	–	–	–	inactive: 0.067	inactive: -0.15	–	–	inactive: -0.205	inactive: 0.287	inactive: -0.106	inactive: 0.003	inactive: -0.035
TRIT1 (UniProt Q9H3H1)	–	–	inactive: -0.039	–	–	–	–	–	–	inactive: -0.064	–	–	–	–	–	–	–	–	–	–
TRPM7 (UniProt Q96QT4)	–	inactive: -0.082	inactive: 0.014	inactive: 0.069	inactive: -0.094	inactive: 0.067	inactive: -0.037	inactive: 0.037	inactive: -0.124	inactive: 0.023	inactive: -0.069	–	inactive: 0.048	inactive: 0.071	inactive: 0.096	inactive: -0.043	inactive: -0.032	inactive: 0.002	inactive: 0.149	inactive: 0.044

An excerpt from above, limited to log2 fold change [8].
Target,log2 fold change [8]
TOR1AIP1 (UniProt Q5JTV8),inactive: 0.078
TOM1L2 (UniProt Q6ZVM7),inactive: -0.025
